{"sequences": {"note": "Sequences of proteins named here, by UniProt entry; tags and fusion partners are left off.", "UniProt P19821, whole entry": "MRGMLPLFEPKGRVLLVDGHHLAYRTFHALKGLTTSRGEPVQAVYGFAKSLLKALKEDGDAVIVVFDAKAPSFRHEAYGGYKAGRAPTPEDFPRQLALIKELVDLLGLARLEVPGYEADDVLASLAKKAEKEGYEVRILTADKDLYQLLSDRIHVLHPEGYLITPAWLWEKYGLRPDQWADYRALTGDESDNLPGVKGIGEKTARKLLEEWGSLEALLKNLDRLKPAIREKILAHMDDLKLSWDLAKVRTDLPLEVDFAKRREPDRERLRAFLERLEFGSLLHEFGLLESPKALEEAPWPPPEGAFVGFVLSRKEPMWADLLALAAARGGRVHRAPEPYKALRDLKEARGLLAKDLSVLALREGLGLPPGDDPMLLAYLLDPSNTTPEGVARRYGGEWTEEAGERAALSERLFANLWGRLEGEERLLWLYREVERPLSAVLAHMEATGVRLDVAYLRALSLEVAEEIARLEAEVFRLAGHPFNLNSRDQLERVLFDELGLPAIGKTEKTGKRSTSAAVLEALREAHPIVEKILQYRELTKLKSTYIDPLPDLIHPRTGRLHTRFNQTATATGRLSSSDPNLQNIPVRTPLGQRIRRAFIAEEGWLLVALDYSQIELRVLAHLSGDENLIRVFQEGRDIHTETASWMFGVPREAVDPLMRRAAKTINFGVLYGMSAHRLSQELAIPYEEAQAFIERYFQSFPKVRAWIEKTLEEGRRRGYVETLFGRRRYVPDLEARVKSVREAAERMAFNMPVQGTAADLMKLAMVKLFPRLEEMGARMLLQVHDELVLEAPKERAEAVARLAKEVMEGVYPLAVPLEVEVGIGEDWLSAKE"}, "source": "patent US10724083", "assay_in_all_cases": "inhibition of the protein", "key": {"Taq DNA polymerase": {"molecular_target": "Taq DNA polymerase (UniProt P19821)", "details": "purified recombinant protein, protein details: GenScript E00007, single-stranded DNA"}, "Deep Vent DNA polymerase": {"molecular_target": "T1, Deep Vent DNA polymerase (UniProt Q51334)", "T1 sequence (looked up, limits assumed)": "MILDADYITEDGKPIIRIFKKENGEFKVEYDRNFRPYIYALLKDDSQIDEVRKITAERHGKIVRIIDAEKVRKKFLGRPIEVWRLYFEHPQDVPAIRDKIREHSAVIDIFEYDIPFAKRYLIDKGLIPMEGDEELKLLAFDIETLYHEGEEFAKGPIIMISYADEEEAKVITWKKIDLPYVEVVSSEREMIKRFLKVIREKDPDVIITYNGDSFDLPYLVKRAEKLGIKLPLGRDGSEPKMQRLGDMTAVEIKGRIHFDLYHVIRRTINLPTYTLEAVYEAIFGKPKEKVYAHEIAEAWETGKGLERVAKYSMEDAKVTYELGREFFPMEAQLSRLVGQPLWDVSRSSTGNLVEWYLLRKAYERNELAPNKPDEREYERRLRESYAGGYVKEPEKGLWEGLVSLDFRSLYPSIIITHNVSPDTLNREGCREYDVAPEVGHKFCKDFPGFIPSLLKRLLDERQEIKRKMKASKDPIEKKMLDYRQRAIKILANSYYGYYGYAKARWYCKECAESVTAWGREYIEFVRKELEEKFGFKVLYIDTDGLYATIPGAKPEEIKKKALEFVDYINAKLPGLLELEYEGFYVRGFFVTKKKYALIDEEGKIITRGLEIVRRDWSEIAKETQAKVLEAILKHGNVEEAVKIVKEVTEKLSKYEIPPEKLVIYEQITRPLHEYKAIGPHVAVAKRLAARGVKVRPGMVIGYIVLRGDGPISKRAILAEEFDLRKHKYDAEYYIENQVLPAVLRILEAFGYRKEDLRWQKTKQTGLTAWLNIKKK", "details": "deoxyinosine at n (position 35) [35 (deoxyinosine, parent G)]; inactivated in hairpin extension assay, 80 nM aptamer, reactivated by EndoV; 5 mM MgCl2, 60 or 65 C; purified recombinant protein; protein details: New England Biolabs M0258S; single-stranded DNA; letters built from the parent sequence and the stated change; variant of aptamer SEQ ID NO:5"}, "Vent DNA polymerase": {"molecular_target": "T2, Vent DNA polymerase (UniProt P30317)", "T2 sequence (looked up, limits assumed)": "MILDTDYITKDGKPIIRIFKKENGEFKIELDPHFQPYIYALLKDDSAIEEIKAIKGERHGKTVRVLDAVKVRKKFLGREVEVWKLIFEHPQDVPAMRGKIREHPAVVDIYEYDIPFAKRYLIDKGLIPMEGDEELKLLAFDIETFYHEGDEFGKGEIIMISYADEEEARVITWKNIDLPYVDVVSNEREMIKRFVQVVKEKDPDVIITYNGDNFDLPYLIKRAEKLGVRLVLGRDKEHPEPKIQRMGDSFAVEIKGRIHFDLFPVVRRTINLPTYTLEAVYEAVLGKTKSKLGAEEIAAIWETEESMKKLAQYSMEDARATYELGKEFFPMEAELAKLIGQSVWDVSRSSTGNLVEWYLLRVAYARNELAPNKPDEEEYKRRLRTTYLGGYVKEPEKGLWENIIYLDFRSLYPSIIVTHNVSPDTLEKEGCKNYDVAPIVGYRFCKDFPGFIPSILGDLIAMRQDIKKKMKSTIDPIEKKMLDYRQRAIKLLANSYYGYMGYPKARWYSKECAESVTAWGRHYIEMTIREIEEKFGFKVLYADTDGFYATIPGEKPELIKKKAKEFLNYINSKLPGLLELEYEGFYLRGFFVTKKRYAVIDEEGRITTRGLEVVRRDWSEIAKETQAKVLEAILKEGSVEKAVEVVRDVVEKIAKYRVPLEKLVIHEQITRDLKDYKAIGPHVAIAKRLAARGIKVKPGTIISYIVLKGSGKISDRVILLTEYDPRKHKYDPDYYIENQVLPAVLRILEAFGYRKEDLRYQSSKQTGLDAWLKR", "details": "deoxyinosine at n (position 35) [35 (deoxyinosine, parent G)]; inactivated in hairpin extension assay, 80 nM aptamer, reactivated by EndoV; 5 mM MgCl2, 60 or 65 C; purified recombinant protein; protein details: New England Biolabs M0254S; single-stranded DNA; letters built from the parent sequence and the stated change; variant of aptamer SEQ ID NO:5"}, "Phusion DNA polymerase": {"system": "Phusion DNA polymerase", "details": "deoxyinosine at n (position 35) [35 (deoxyinosine, parent G)]; inactivated in hairpin extension assay, 80 nM aptamer, reactivated by EndoV; 5 mM MgCl2, 60 or 65 C; purified recombinant protein; protein details: New England Biolabs M0530S; single-stranded DNA; letters built from the parent sequence and the stated change; variant of aptamer SEQ ID NO:5"}, "Q5 DNA polymerase": {"system": "Q5 DNA polymerase", "details": "deoxyinosine at n (position 35) [35 (deoxyinosine, parent G)]; inactivated in hairpin extension assay, 80 nM aptamer, reactivated by EndoV; 5 mM MgCl2, 60 or 65 C; purified recombinant protein; protein details: New England Biolabs M0491S; single-stranded DNA; letters built from the parent sequence and the stated change; variant of aptamer SEQ ID NO:5"}, "[1]": {"molecular_target": "T3, Bst DNA polymerase large fragment (UniProt P52026)", "T3 sequence (looked up, limits assumed)": "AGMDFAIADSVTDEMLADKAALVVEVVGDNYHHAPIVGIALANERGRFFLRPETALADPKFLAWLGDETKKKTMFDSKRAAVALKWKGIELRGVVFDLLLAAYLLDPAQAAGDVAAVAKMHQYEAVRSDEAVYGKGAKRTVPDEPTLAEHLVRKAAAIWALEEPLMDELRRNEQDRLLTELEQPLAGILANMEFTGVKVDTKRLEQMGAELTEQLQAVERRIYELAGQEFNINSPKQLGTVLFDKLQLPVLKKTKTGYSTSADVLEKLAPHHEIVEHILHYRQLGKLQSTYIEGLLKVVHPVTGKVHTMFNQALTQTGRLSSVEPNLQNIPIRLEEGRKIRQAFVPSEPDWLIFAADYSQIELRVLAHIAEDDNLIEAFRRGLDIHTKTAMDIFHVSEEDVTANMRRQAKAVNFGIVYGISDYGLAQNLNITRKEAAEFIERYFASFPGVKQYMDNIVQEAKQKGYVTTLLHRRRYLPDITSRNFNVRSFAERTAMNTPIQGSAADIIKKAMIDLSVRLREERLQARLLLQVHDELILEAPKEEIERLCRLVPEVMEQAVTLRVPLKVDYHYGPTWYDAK", "details": "deoxyinosine at n (position 35) [35 (deoxyinosine, parent G)]; Bst not inactivated, 80 nM aptamer; 5 mM MgCl2, 60 or 65 C; purified recombinant protein; protein details: New England Biolabs M0275S; single-stranded DNA; letters built from the parent sequence and the stated change; variant of aptamer SEQ ID NO:5"}}, "note": "For at least one entry, the source does not settle the construct or the ends of the probe. For some of these results: A negative result means that nothing was seen under these conditions. For some of these results: Where a protein sequence is shown, tags need not be part of it. For some of these results: A weaker result is weaker than the reference pair of the same experiment."}
{"sequence": "CCTGATGATGATGATGACATTCTTAGCGTTTTGTCATCATCATCATCAGGT [aptamer SEQ ID NO:14]", "values": [{"measurement": "functional effect of the aptamer", "setting": "Taq DNA polymerase; deoxyinosine at n (position 7) [7 (deoxyinosine)], truncated hairpin after EndoV likely still blocks, 20 nM, 5 mM MgCl2, 60 C, letters built from the parent sequence and the stated change, variant of aptamer SEQ ID NO:11", "value": "active"}]}
{"sequence": "GGACTACTACTACTACTGATTCTTAGCGTTTTCAGTAGTAGTAGTAGTCCT [aptamer SEQ ID NO:19]", "values": [{"measurement": "functional effect of the aptamer", "setting": "Taq DNA polymerase; deoxyinosine at n (position 23, loop) [23 (deoxyinosine)], inactivates Taq, activity completely restored with EndoV, 20 nM, 5 mM MgCl2, 60 C, letters built from the parent sequence and the stated change, variant of aptamer SEQ ID NO:5", "value": "active"}]}
{"sequence": "CCTGATGATGATGATGACATTCTTAGCGTTTTGTCATCATCATCATCAGGT [aptamer SEQ ID NO:11]", "values": [{"measurement": "functional effect of the aptamer", "setting": "Taq DNA polymerase; effectively blocks Taq in real-time PCR, stem strands exchanged, 20 nM, 5 mM MgCl2, 60 C, variant of aptamer SEQ ID NO:5", "value": "active"}]}
{"sequence": "GGACTACTACTACTACTGATTCTTAGCGTTTTCAGTAGTAGTAGTAGTCCT [aptamer SEQ ID NO:5]", "values": [{"measurement": "functional effect of the aptamer", "setting": "Taq DNA polymerase; effectively blocks Taq in real-time PCR, 20 nM aptamer, 5 mM MgCl2, 50 mM KCl, 20 mM Tris pH 8.0, 60 C", "value": "active"}]}
{"sequence": "GGACTACTACTACTACTGATTCTTAGCGTTTTCAGTAGTAGTAGTAGTCCT [aptamer SEQ ID NO:7]", "values": [{"measurement": "functional effect of the aptamer", "setting": "Taq DNA polymerase; deoxyinosine at n (position 18) [18 (deoxyinosine, parent G)], less effective block, inosine too close to loop, 20 nM, 5 mM MgCl2, 60 C, letters built from the parent sequence and the stated change, variant of aptamer SEQ ID NO:5", "value": "less active"}]}
{"sequence": "GGACTACTACTACTACTGATTCTTAGCGTTTTCAGTAGTAGTAGTAGTCCT [aptamer SEQ ID NO:8]", "values": [{"measurement": "functional effect of the aptamer", "setting": "Taq DNA polymerase; deoxyinosine at n (positions 18 and 35) [18,35 (deoxyinosine, parent G)], two I-C pairs destabilise duplex, inactivation negatively affected, 20 nM, 5 mM MgCl2, 60 C, letters built from the parent sequence and the stated change, variant of aptamer SEQ ID NO:5", "value": "less active"}]}
{"sequence": "GGACTACTACTACTACTGATTCTTAGCGTTTTCAGTAGTAGTAGTAGTCCT [aptamer SEQ ID NO:18]", "values": [{"measurement": "functional effect of the aptamer", "setting": "Taq DNA polymerase; deoxyinosine at n (position 28, loop) [28 (deoxyinosine)], very weak inactivation, block completely lost after EndoV cleavage, 20 nM, 5 mM MgCl2, 60 C, letters built from the parent sequence and the stated change, variant of aptamer SEQ ID NO:5", "value": "less active"}]}
{"sequence": "CCTGATGATGATGATGACATTCTTAGCGTTTTGTCATCATCATCATCAGGT [aptamer SEQ ID NO:13]", "values": [{"measurement": "functional effect of the aptamer", "setting": "Taq DNA polymerase; deoxyinosine at n (position 10) [10 (deoxyinosine)], ideal inactivation, activity restored with EndoV, 20 nM, 5 mM MgCl2, 60 C, letters built from the parent sequence and the stated change, variant of aptamer SEQ ID NO:11", "value": "active"}]}
{"sequence": "GGACTACTACTACTACTGATTCTTAGCGTTTTCAGTAGTAGTAGTAGTCCT [aptamer SEQ ID NO:20]", "values": [{"measurement": "functional effect of the aptamer", "setting": "Taq DNA polymerase; deoxyinosine at n (position 24, loop) [24 (deoxyinosine)], inactivates Taq but somewhat less effective, activity completely restored with EndoV, 20 nM, 5 mM MgCl2, 60 C, letters built from the parent sequence and the stated change, variant of aptamer SEQ ID NO:5", "value": "less active"}]}
{"sequence": "GGACTACTACTACTACTGATTCTTAGCGTTTTCAGTAGTAGTAGTAGTCCT [aptamer SEQ ID NO:17]", "values": [{"measurement": "functional effect of the aptamer", "setting": "Taq DNA polymerase; deoxyinosine at n (position 26, loop) [26 (deoxyinosine)], ideal inactivation, block completely lost after EndoV cleavage, 20 nM, 5 mM MgCl2, 60 C, letters built from the parent sequence and the stated change, variant of aptamer SEQ ID NO:5", "value": "active"}]}
{"sequence": "GGACTACTACTACTACTGATTCTTAGCGTTTTCAGTAGTAGTAGTAGTCCT [aptamer SEQ ID NO:9]", "values": [{"measurement": "functional effect of the aptamer", "setting": "Taq DNA polymerase; deoxyinosine at n (position 38) [38 (deoxyinosine, parent G)], ideal inactivation, activity restored with EndoV, 20 nM, 5 mM MgCl2, 60 C, letters built from the parent sequence and the stated change, variant of aptamer SEQ ID NO:5", "value": "active"}]}
{"sequence": "CCTGATGATGATGATGACATTCTTAGCGTTTTGTCATCATCATCATCAGGT [aptamer SEQ ID NO:12]", "values": [{"measurement": "functional effect of the aptamer", "setting": "Taq DNA polymerase; deoxyinosine at n (position 13) [13 (deoxyinosine)], ideal inactivation, activity restored with EndoV, 20 nM, 5 mM MgCl2, 60 C, letters built from the parent sequence and the stated change, variant of aptamer SEQ ID NO:11", "value": "active"}]}
{"sequence": "CCTGATGATGATGATGACATTCTTAGCGTTTTGTCATCATCATCATCAGGT [aptamer SEQ ID NO:16]", "values": [{"measurement": "functional effect of the aptamer", "setting": "Taq DNA polymerase; deoxyinosine at n (positions 7, 10, 13 and 16) [7, 10, 13, 16 (deoxyinosine)], four I-C pairs destabilise duplex, inactivation negatively affected, 20 nM, 5 mM MgCl2, 60 C, letters built from the parent sequence and the stated change, variant of aptamer SEQ ID NO:11", "value": "less active"}]}
{"sequence": "GGACTACTACTACTACTGATTCTTAGCGTTTTCAGTAGTAGTAGTAGTCCT [aptamer SEQ ID NO:6]", "values": [{"measurement": "functional effect of the aptamer", "setting": "Taq DNA polymerase; deoxyinosine at n (position 35) [35 (deoxyinosine, parent G)], ideal inactivation, activity restored with EndoV, 20 nM, 5 mM MgCl2, 60 C, letters built from the parent sequence and the stated change, variant of aptamer SEQ ID NO:5", "value": "active"}, {"measurement": "functional effect of the aptamer", "setting": "Deep Vent DNA polymerase", "value": "active"}, {"measurement": "functional effect of the aptamer", "setting": "Vent DNA polymerase", "value": "active"}, {"measurement": "functional effect of the aptamer", "setting": "Phusion DNA polymerase", "value": "active"}, {"measurement": "functional effect of the aptamer", "setting": "Q5 DNA polymerase", "value": "active"}, {"measurement": "functional effect of the aptamer", "setting": "[1]", "value": "not active"}]}
